From US4442031A (Hoffmann-La Roche Inc., priority 1983, dated 1984) come the findings set out here.

The data set can be described thus: general procedure: solution-phase peptide synthesis; DCC/HOSu; DCC/HOBt.

For the substance “L-Lysyl-L-seryl-L-glutamyl-L-valyl-L-valyl-L-glutamic acid”, the step yield (late stage modification step, over three deprotection reactions) is 51.4% for the three reactions.

Substance “N^α -Benzyloxycarbonyl-N^ε -t-butyloxycarbonyl-L-lysyl-N^ε -t-butyloxycarbonyl-L-lysyl-γ-t-butyl-L-glutamyl-L-valyl-L-valyl-γ-t-butyl-L-glutamic acid methyl ester” returned a step yield (coupling step) of 98%.

As to “N^α -Benzyloxycarbonyl-N^ε -t-butyloxycarbonyl-L-lysyl-O-t-butyl-L-seryl-γ-t-butyl-L-glutamyl-L-valyl-L-valyl-γ-t-butyl-L-glutamic acid methyl ester”, for the setting “coupling step”, the step yield was 65.3%.

As to “γ-t-Butyl-L-glutamyl-L-valyl-L-valyl-γ-t-butyl-L-glutamic acid methyl ester”, the step yield (late stage modification step) is listed as 94%.
